According to the supplement of paper PMC4604168 (melanoma cell lines):
Some of the results follow. Repeats are few or missing, and single values can be far off.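 Cells were imaged in 1,536-well plates, and nuclei stained with an antibody against cleaved PARP were counted against all DNA-stained nuclei to give the apoptosis fraction. Screening doses were chosen to leave most cells alive, and resting and induced cleaved-PARP levels differ strongly between cell lines.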

test system: CBRC016 (line from a melanoma biopsy); assay: cleaved PARP positive nuclei fraction relative to DMSO control; melanoma cells; higher = more apoptosis; conditions: library dose: low library concentration; 72 h

Row | Compound | cleaved PARP positive nuclei fraction [%]
1 | CC(=O)c1c(C)c2cnc(Nc3ccc(N4CCNCC4)cn3)nc2n(C2CCCC2)c1=O [palbociclib] + O=S(=O)(c1ccccc1)N(CC(F)(F)F)c1ccc(C(O)(C(F)(F)F)C(F)(F)F)cc1 [T0901317] (first compound 0.04 µM, partner dose 1.4 µM) | 110
2 | Cc1nc(Nc2ncc(C(=O)Nc3c(C)cccc3Cl)s2)cc(N2CCN(CCO)CC2)n1 [dasatanib] + CN(C)S(=O)(=O)c1ccc2c(c1)/C(=C/c1cc3c([nH]1)CCCC3)C(=O)N2 [SU6656] (first compound 0.004 µM, partner dose 0.4 µM) | 34.3
3 | CC(=O)c1c(C)c2cnc(Nc3ccc(N4CCNCC4)cn3)nc2n(C2CCCC2)c1=O [palbociclib] + COc1cc(Nc2ncc(F)c(Nc3ccc4c(n3)NC(=O)C(C)(C)O4)n2)cc(OC)c1OC [Tamatinib] (first compound 0.04 µM, partner dose 0.4 µM) | 87.4
4 | CO[C@@H]1[C@H](N(C)C(=O)c2ccccc2)C[C@H]2O[C@]1(C)n1c3ccccc3c3c4c(c5c6ccccc6n2c5c31)C(=O)NC4 [Midostaurin] + CN(NC(=O)CC(=O)NN(C)C(=S)c1ccccc1)C(=S)c1ccccc1 [STA4783] (first compound 0.08 µM, partner dose 0.006 µM) | 343
5 | Cc1cc(N2CCOCC2)cc2[nH]c(-c3c(NC[C@@H](O)c4cccc(Cl)c4)cc[nH]c3=O)nc12 + CC(C)CCN1c2nc(Nc3cc(F)c(O)c(F)c3)ncc2N(C)C(=O)C1C [BID1870] (first compound 0.2 µM, partner dose 0.2 µM) | 23
6 | Nc1cccc2c1CN(C1CCC(=O)NC1=O)C2=O (stereo not given) [lenalidomide] + COc1cc2c(Oc3ccc4[nH]c(C)cc4c3F)ncnc2cc1OCCCN1CCCC1 [cediranib] (first compound 1 µM, partner dose 0.4 µM) | 85.4
7 | CC(C)(C)c1cnc(CSc2cnc(NC(=O)C3CCNCC3)s2)o1 + O=S(=O)(c1ccccc1)N(CC(F)(F)F)c1ccc(C(O)(C(F)(F)F)C(F)(F)F)cc1 [T0901317] (first compound 0.01 µM, partner dose 1.4 µM) | 92
8 | OCc1c[nH]c2ccccc12 [Indole-3-carbinol] + NCC(=O)Nc1ccc(-n2nc(C(F)(F)F)cc2-c2ccc3c(ccc4ccccc43)c2)cc1 [OSU03012] (first compound 0.8 µM, partner dose 1 µM) | 142
9 | C[C@]1(c2nc3c(C(N)=O)cccc3[nH]2)CCCN1 [Veliparib] + O=c1cc(-c2cccc3c2Sc2ccccc2S3)oc(N2CCOCC2)c1 [KU55933] (first compound 1.4 µM, partner dose 1 µM) | 79.9
10 | CC(C)(C)c1cnc(CSc2cnc(NC(=O)C3CCNCC3)s2)o1 + COc1cc2ncnc(Nc3ccc(Oc4ccccc4)cc3)c2cc1OC [SrcI1] (first compound 0.01 µM, partner dose 2 µM) | 46.8
11 | C#Cc1cccc(Nc2ncnc3cc(OCCOC)c(OCCOC)cc23)c1 [erlotinib] + OCCn1cc(-c2cnc3nnn(Cc4ccc5ncccc5c4)c3n2)cn1 [PF04217903] (first compound 0.8 µM, partner dose 1 µM) | 49.6
12 | Cn1nnc2c(C(N)=O)ncn2c1=O [temozolomide] + Oc1nc(-c2ccc(C(F)(F)F)cc2)nc2c1CSCC2 [XAV939] (first compound 2 µM, partner dose 2 µM) | 124
13 | COCC[n+]1c2c(n(Cc3cnccn3)c1C)C(=O)c1ccccc1C2=O + CN(C)S(=O)(=O)c1ccc2c(c1)/C(=C/c1cc3c([nH]1)CCCC3)C(=O)N2 [SU6656] (first compound 0.0004 µM, partner dose 0.4 µM) | 32.8
14 | C=CCn1c(=O)c2cnc(Nc3ccc(N4CCN(C)CC4)cc3)nc2n1-c1cccc(C(C)(C)O)n1 + CN(NC(=O)CC(=O)NN(C)C(=S)c1ccccc1)C(=S)c1ccccc1 [STA4783] (first compound 0.02 µM, partner dose 0.006 µM) | 71.5
15 | C=CCNC1=C2C[C@@H](C)C[C@H](OC)[C@H](O)[C@@H](C)/C=C(\C)[C@H](OC(N)=O)[C@@H](OC)/C=C\C=C(/C)C(=O)NC(=CC1=O)C2=O [Tanespimycin] + COc1ccc(-c2ccc3c(N4CCOCC4)nc(N4C[C@@H](C)O[C@@H](C)C4)nc3n2)cc1CO [KU0063794] (first compound 0.002 µM, partner dose 0.02 µM) | 55.6
16 | Cc1ccc(NC(=O)c2cccc(N(C)C)c2)cc1NC(=O)c1ccc(O)cc1 + Oc1cc(-c2nc(-c3ccccc3)[nH]c2-c2ccncc2)ccc1Cl [L779450] (first compound 2 µM, partner dose 0.2 µM) | 85.6
17 | Cn1nnc2c(C(N)=O)ncn2c1=O [temozolomide] + CCN(CC)CCCCNc1ncc2cc(-c3cc(OC)cc(OC)c3)c(NC(=O)NC(C)(C)C)nc2n1 [PD173074] (first compound 2 µM, partner dose 0.1 µM) | 131
18 | CC(=O)c1c(C)c2cnc(Nc3ccc(N4CCNCC4)cn3)nc2n(C2CCCC2)c1=O [palbociclib] + COc1ccc(COc2ccc(Cc3cnc(N)nc3N)cc2OC)cc1 [GW2580] (first compound 0.04 µM, partner dose 1 µM) | 101
19 | C[C@]1(c2nc3c(C(N)=O)cccc3[nH]2)CCCN1 [Veliparib] + COc1cc2c(Oc3ccc4[nH]c(C)cc4c3F)ncnc2cc1OCCCN1CCCC1 [cediranib] (first compound 1.4 µM, partner dose 0.4 µM) | 154
20 | C=CCn1c(=O)c2cnc(Nc3ccc(N4CCN(C)CC4)cc3)nc2n1-c1cccc(C(C)(C)O)n1 + OCCn1cc(-c2cnc3nnn(Cc4ccc5ncccc5c4)c3n2)cn1 [PF04217903] (first compound 0.02 µM, partner dose 1 µM) | 76
